No constants are given. Whether binding was seen depends on the method and setting. Some entries that bind do so weakly or less than the wild type.
What was measured:
[1] = molecular target: HLA-G5 standard protein (human) (UniProt P17693); test: immunoblotting of standard proteins after denaturing PAGE
[2] = molecular target: HLA-G4 standard protein (human) (UniProt P17693); test: as above
[3] = molecular target: HLA-G5 standard protein (human) (UniProt P17693); test: ELISA, HLA-G5 coated in a 2-fold gradient, antibody 1.0 ug/ml

binding [1]: binds | binding [2]: binds | binding [3]: binds
B1: monoclonal antibody (YWHG-4) against HLA-G isoforms (HLA-G1, HLA-G4, HLA-G5) (antibody, V domains shown)
VH: VQLQQSGAEVVRPGTSVKVSCKASGYASTNYLVEWIKQRPGQGLEWIGVINPGSGRIYYSEKFKGKTTLTADKSSSNAYMQLSSLTSDDSAVYFCARHYGNSAWFAYWGQGTLVTVSA
VL: DIVITQDELSLPVSLGDQAAISCRSSQSIVHSNGNTYLEWYLQKPGQSPKLLIYKVSNRFSGVPDRFRGSGSGTDFTLKISRVEAEDLGVYYCFQASHVPYTFGGGTKLEIKR
notes: FITC-labeled in the flow cytometry; also called hybridoma CCTCC NO: 2021204
